Test results taken from PubChem BioAssay AID540303 (National Center for Advancing Translational Sciences (NCATS), 2011).
About 1,000 (0.3%) of roughly 330,000 compounds were called active. The shares of active, inactive and inconclusive entries below differ from those in the screen. Calls follow the shape of the dose curve; as a rule, active = well fitted inhibition curve with a large enough effect; inconclusive = small, poorly fitted or top-dose-only effect; inactive = no such curve, though single readings can be large or run the other way; tested in mouse RAW 264.7 cells. Potencies of inconclusive entries are doubtful fits and often do not repeat.

test: qHTS for Inhibitors of Cell Surface uPA Generation; settings: cell surface uPA generation assay; series mostly up to 38.3 µM; activity change, negative = inhibition: at the top concentration; also: nearly all actives have a fitted effect of over 55% in size
How it was run: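 Murine RAW 264.7 cells are treated for 24 h with compound up to 38.3 uM final. Cell ATP, measured by ATP-Lite, remains high if blocking the uPA cascade prevents LF from reaching the cytoplasm.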
% is scaled to controls: 0 for no effect and ±100 for the full control effect; potency is read from the fitted curve at half-maximal effect.

SMILES	Potency	activity change, negative = inhibition
O=C(OCC(=O)N1CCN(C(=O)c2ccco2)CC1)c1ccc(Cl)cc1	inconclusive: 1 µM [inhibitor, partial curve, poor fit]	
Cc1nn(-c2ccccn2)c2c1-c1nc(N)ncc1CC2		inactive: -3.89%
Oc1ccc(N2CCN(C(c3ccncc3)c3nnnn3C3CCCC3)CC2)cc1 (configuration not stated)	inconclusive: 12.6 µM [inhibitor, single point]	
C=CC(C)(C)c1[nH]cnc1/C=C1\NC(=O)C(C(C)C)NC1=O (configuration not stated)	inconclusive: 8.91 µM [inhibitor, partial curve, poor fit]	
O=[N+]([O-])c1cccc(COc2ccc(CN3CCOCC3)cc2)c1	inconclusive: 28.2 µM [inhibitor, single point]	
CS(=O)(=O)c1ccc2nc(NC(=O)C3CC3)sc2c1	inconclusive: 7.94 µM [inhibitor, partial curve, poor fit]	
O=C(CNC(=O)c1ccccc1Br)NCCSc1ccc(Br)cc1	inconclusive: 1.26 µM [inhibitor, single point]	
C=CCNc1nc(S(=O)Cc2ccc(C)cc2)nc2c1CCCC2 (configuration not stated)	inconclusive: 10 µM [inhibitor, single point]	
COc1c(C(O)CC(C)C)ccc2c1C(=O)OCc1cc(C)cc(O)c1O2 (configuration not stated)		inactive: -4.61%
Cc1cccnc1Nc1nc(-c2ccc(O)c(O)c2)cs1	inconclusive: 7.08 µM [inhibitor, partial curve, poor fit]	
CSc1nc2ccccc2n1CC(=O)Nc1cc(C(F)(F)F)ccc1N1CCOCC1		inactive: 10.3%
CC(C)(C)C(=O)Nc1ccc(C(=O)Nc2cccc(Oc3ccc(C(=O)O)c(C(=O)O)c3)c2)cc1	inconclusive: 11.2 µM [inhibitor, partial curve, poor fit]	
COc1ccc(Cl)cc1C(=O)O/N=C(\N)c1ccc(Cl)cc1		inactive: 1.76%
Cc1nc(NC(=O)Nc2ccc(Cl)cc2)sc1C		inactive: -2.97%
Cc1cc(SCC(=O)c2ccccc2)n2nc(C)nc2n1	inconclusive: 10 µM [inhibitor, partial curve, poor fit]	
CC(=O)c1ccc(NC(=S)N(C)C2CCN(C)CC2)cc1	inconclusive: 10 µM [inhibitor, partial curve, poor fit]	
CCCN(CCC)C(=O)c1cc([N+](=O)[O-])cc2c1-c1ccc([N+](=O)[O-])cc1C2=C(C#N)C#N	inconclusive: 3.98 µM [inhibitor, partial curve, poor fit]	
COc1cc(C(C#N)N2CCCCC2)ccc1O (configuration not stated)		inactive: -12.1%
O=C(/C=C\c1ccc(-c2cccc([N+](=O)[O-])c2)o1)N1CCOCC1		inactive: 1.95%
COCCNC(=O)c1cn(C)c2ccc(S(=O)(=O)N3CCCCC3)cc2c1=O	inconclusive: 4.47 µM [inhibitor, single point]	
O=C1N[C@@H](c2ccccc2)COC(=O)[C@H](Cc2ccc(F)cc2)CC/C=C/C[C@H]1CC(=O)N(CCO)Cc1ccccc1	inconclusive: 12.6 µM [inhibitor, single point]	

Structures from the list above with a halogen, in the order listed:
SMILES	Potency	activity change, negative = inhibition
O=C(OCC(=O)N1CCN(C(=O)c2ccco2)CC1)c1ccc(Cl)cc1	inconclusive: 1 µM [inhibitor, partial curve, poor fit]	
O=C(CNC(=O)c1ccccc1Br)NCCSc1ccc(Br)cc1	inconclusive: 1.26 µM [inhibitor, single point]	
CSc1nc2ccccc2n1CC(=O)Nc1cc(C(F)(F)F)ccc1N1CCOCC1		inactive: 10.3%
COc1ccc(Cl)cc1C(=O)O/N=C(\N)c1ccc(Cl)cc1		inactive: 1.76%
Cc1nc(NC(=O)Nc2ccc(Cl)cc2)sc1C		inactive: -2.97%
O=C1N[C@@H](c2ccccc2)COC(=O)[C@H](Cc2ccc(F)cc2)CC/C=C/C[C@H]1CC(=O)N(CCO)Cc1ccccc1	inconclusive: 12.6 µM [inhibitor, single point]	

(listing goes on)

SMILES	Potency	activity change, negative = inhibition
CC1=C(C(=O)Nc2ccc(CC(=O)NCc3ccccc3C)cc2)SCCO1	inconclusive: 10 µM [inhibitor, partial curve, poor fit]	
COc1ccc(N(CC(=O)N2CCN(c3cccc(C)c3C)CC2)S(=O)(=O)c2c(C)noc2C)cc1	inconclusive: 12.6 µM [inhibitor, single point]	
CCOC(=O)C1CCN(C(=O)c2c(C)oc3c2C(=O)c2ccccc2C3=O)CC1	inconclusive: 7.94 µM [inhibitor, single point]	
O=C(O)c1cnc(-c2ccccc2)nc1Sc1ccc(Cl)cc1Cl		inactive: 0.889%
CCCOC(=O)c1ccc(NC(=O)COC(=O)C2CCN(c3ccc(C(F)(F)F)cn3)CC2)cc1	inconclusive: 3.55 µM [inhibitor, full curve, poor fit]	
Cc1cc(C(=O)N2CCN(S(=O)(=O)c3ccc(F)c(Cl)c3)CC2)c(C)o1	inconclusive: 6.31 µM [inhibitor, partial curve, poor fit]	
CC1CCN(C(=O)C(=O)c2cn(CC(=O)N3CCCCCC3)c3ccccc23)CC1		inactive: -5.41%
COc1ccc(CSC2=NCCN2)cc1Cl	inconclusive: 3.98 µM [inhibitor, partial curve, poor fit]	
N#Cc1ccc(-c2nc3ccccc3nc2-c2ccccc2)cc1C#N		inactive: 0.598%
O=C(CNC(=O)c1ccccc1F)c1ccccc1	inconclusive: 5.62 µM [inhibitor, full curve, poor fit]	
Cc1ccc(S(=O)(=O)N2CCCCC2)cc1		inactive: -7.88%
CCOC(=O)N1CCN(C(=O)CS(=O)Cc2nc(-c3ccc(C)cc3)oc2C)CC1 (configuration not stated)	inconclusive: 12.6 µM [inhibitor, single point]	
C=C1CCC[C@]2(C)C[C@H]3OC(=O)C(CN4CC(C)OC(C)C4)[C@H]3C[C@@H]12 (some centres not stated)	inconclusive: 7.94 µM [inhibitor, single point]	
O=c1o[nH]c(-c2ccccc2)c1N=Nc1c(F)cccc1Cl	inconclusive: 0.0007 µM [inhibitor, full curve, poor fit]	
O=C(CCS(=O)(=O)c1ccccc1)N(CCCN1CCOCC1)c1nc2c(F)cccc2s1	inconclusive: 12.6 µM [inhibitor, single point]	
CC(=Nc1ccc(C)cc1C)c1sc2ccccc2c1O	inconclusive: 6.31 µM [inhibitor, partial curve, poor fit]	
O=S1(=O)c2ccc(Br)cc2N2CCC[C@H]2CN1Cc1ccccc1	inconclusive: 2.24 µM [inhibitor, full curve, poor fit]	
O=C1N/C(=C\c2ccccc2)c2ccccc21	inconclusive: 2.82 µM [inhibitor, full curve, poor fit]	
COc1ccc(-c2cnn3c(N)c(S(=O)(=O)c4ccccc4)cnc23)cc1		inactive: -7.66%
CNC(=O)CC1C(=O)N(c2ccc(F)cc2)C(=S)N1NC(=O)c1ccc(Br)cc1 (configuration not stated)		inactive: 9.74%
COc1ccc(-c2nnc(SC(C)C(=O)Nc3ccc4c(c3)OCCO4)o2)cc1 (configuration not stated)	inconclusive: 4.47 µM [inhibitor, partial curve, poor fit]	
